Here are results for two molecules from article PMC8934646.

The chains behind the UniProt entries cited, without tags or fusion partners.
UniProt O75643: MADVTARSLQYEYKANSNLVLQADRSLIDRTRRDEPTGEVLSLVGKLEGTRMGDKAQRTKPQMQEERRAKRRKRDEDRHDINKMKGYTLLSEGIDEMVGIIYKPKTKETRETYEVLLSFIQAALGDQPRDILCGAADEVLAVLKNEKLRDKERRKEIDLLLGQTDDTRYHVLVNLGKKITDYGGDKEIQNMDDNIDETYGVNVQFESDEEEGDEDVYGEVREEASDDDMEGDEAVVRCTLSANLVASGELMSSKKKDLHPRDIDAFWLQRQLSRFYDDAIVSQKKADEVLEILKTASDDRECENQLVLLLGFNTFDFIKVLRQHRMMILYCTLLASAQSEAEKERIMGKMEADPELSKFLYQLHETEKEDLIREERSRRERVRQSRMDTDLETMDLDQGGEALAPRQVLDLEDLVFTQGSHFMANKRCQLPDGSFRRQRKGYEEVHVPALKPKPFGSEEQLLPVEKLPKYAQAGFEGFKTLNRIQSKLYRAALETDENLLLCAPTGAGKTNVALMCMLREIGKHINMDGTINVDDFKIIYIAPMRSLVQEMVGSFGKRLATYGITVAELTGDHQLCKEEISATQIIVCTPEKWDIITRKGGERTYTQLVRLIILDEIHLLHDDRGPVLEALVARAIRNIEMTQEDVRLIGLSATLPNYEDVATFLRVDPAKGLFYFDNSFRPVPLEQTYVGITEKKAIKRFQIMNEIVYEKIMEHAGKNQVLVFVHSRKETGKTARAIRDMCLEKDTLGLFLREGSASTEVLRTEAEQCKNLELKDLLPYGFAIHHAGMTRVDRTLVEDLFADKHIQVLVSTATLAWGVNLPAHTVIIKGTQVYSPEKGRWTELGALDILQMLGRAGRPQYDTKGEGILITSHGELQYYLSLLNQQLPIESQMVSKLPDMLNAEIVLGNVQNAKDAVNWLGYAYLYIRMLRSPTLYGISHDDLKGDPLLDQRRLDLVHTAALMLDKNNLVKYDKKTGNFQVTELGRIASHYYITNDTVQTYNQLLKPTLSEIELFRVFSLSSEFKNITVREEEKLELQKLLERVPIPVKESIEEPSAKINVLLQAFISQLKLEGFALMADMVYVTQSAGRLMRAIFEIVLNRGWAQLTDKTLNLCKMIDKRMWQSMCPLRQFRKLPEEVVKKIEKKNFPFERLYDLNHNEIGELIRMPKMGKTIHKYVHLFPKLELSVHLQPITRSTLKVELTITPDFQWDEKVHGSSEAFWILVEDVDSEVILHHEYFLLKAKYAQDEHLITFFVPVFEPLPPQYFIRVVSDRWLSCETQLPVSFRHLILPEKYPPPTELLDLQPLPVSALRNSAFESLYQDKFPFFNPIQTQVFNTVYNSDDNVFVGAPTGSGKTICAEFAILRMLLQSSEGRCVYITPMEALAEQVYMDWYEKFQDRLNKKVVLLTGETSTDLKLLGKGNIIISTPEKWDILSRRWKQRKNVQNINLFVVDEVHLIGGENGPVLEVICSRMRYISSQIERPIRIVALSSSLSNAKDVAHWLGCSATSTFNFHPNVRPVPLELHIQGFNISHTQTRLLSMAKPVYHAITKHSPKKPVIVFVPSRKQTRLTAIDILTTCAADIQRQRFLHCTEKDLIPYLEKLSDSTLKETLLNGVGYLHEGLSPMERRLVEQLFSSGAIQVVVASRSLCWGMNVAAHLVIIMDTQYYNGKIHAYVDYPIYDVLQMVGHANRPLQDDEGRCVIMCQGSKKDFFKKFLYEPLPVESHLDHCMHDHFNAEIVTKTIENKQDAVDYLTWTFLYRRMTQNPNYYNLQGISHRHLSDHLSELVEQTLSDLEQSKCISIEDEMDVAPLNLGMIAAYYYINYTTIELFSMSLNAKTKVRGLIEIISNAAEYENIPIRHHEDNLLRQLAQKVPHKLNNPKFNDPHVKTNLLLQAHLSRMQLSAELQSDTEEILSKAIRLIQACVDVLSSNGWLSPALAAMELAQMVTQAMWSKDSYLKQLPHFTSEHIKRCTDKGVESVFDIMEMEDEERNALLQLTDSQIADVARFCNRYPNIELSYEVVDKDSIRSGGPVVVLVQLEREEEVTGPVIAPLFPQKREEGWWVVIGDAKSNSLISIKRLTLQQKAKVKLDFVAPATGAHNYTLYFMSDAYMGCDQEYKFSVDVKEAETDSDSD

This experiment deals with full-length SNRNP200 (SNRNP200^FL) (human) (UniProt O75643). In words: SEC; analytical SEC, Superdex 200 increase 3.2/300, 20 mM Tris-HCl pH 8.0, 200 mM NaCl, 1 mM DTT; 75 μg SNRNP200 variant with 1.5-fold molar excess of a GST-TSSC4 variant, or 30 μg GST-TSSC4 variant with equimolar PRPF8^Jab1ΔC, in 50 μl, 10 min on ice; fractions by SDS-PAGE; both purified. On the technique in general: SEC sorts molecules by how far they enter the pores of the column.

Numbering of substitutions follows the chain as printed. No constants are given. Whether binding was seen depends on the method and setting. Tags and fused reporters may be left off the sequences shown.

B1: GST-TSSC4 variant 2 (GST-TSSC4^V2) (protein, UniProt Q9Y5U2 1-329)
chain: MAEAGTGEPSPSVEGEHGTEYDTLPSDTVSLSDSDSDLSLPGGAEVEALSPMGLPGEEDSGPDEPPSPPSGLLPATVQPFHLRGMSSTFSQRSRDIFDCLEGAARRAPSSVAHTSMSDNGGFKRPLAPSGRSPVEGLGRAHRSPASPRVPPVPDYVAHPERWTKYSLEDVTEVSEQSNQATALAFLGSQSLAAPTDCVSSAAQDPSSCGEGRVIFTKPVRGVEARHERKRVLGKVGEPGRGGLGNPATDRGEGPVELAHLAGPGSPEAEEWGSHHGGLQEVEALSGSVHSGSVPGLPPVETVGFHGSRKRSRDHAANKSSSPEDPGAEV
As to B1, the binding result is on record as “no binding”.

B2: GST-TSSC4 variant 3 (GST-TSSC4^V3) (protein, UniProt Q9Y5U2 1-329)
chain: B1 chain with W162A, Y165A
Take B2: the binding result is reported as “no binding”.
